Experimental data published in patent US7750017B2, “Heterocycles” (Bayer Schering Pharma Aktiengesellschaft, priority 2004, dated 2010).
Counter-ions that a name gives are not always drawn. Like-named read-outs stand apart in the source and are kept apart here. Some results were stated once for a whole list of compounds, not compound by compound.

Assays:
[1] = test system: BT474 [human breast carcinoma, overexpressing HER2 (ErbB2)]; experiment: In vitro tumor cell proliferation assay (Cell Titer-Glo luminescent cell viability), BT474 cells; format: cell-based; details: 72 hours of drug exposure, Cell Titer-Glo readout
Description: (§1) The utility of the compounds of the present invention can be illustrated, for example, by their activity in vitro in the in vitro tumor cell proliferation assay described below. The link between activity in tumor cell proliferation assays in vitro and anti-tumor activity in the clinical setting has been very well established in the art.
(§2) The following assay is one of the methods by which compound activity relating to treatment of the disorders identified herein can be determined.
The tumor cell proliferation assay used to test the compounds of the present invention involves a readout called Cell Titer-Glow® Luminescent Cell Viability Assay developed by Promega® (Cunningham, B A “A Growing Issue: Cell Proliferation Assays, Modern kits ease quantification of cell growth” The Scientist 2001, 15(13), 26, and Crouch, S P et al., “The use of ATP bioluminescence as a measure of cell proliferation and cytotoxicity” Journal of Immunological Methods 1993, 160, 81-88), that measures inhibition of cell proliferation. Generation of a luminescent signal corresponds to the amount of ATP present, which is directly proportional to the number of metabolically active (proliferating) cells.
A431 cells [human epidermoid carcinoma, ATCC # […], overexpressing HER1 (EGFR, ErbB1)] and BT474 [human breast carcinoma, ATCC # CRL-1555, overexpressing HER2 (ErbB2)] were plated at a density of 2.5×10^3 cells/well in 96 well black-clear bottom tissue culture plates in RPMI media with 10% Fetal Bovine Serum and incubated at 37° C. Twenty-four hours later, test compounds are added at a final concentration range from as high 100 μm to as low 64 pM depend on the activities of the tested compounds in serial dilutions at a final DMSO concentration of 0.1%. Cells were incubated for 72 hours at 37° C. in complete growth media after addition of the test compound. After 72 hours of drug exposure, the plates were equilibrated to room temperature for approximately 30 min. Then, using a Promega Cell Titer Glo Luminescent® assay kit, lysis buffer containing 100 microliters of the enzyme luciferase and its substrate, luciferin mixture, was added to each well. The plates were mixed for 2 min on orbital shaker to ensure cell lysis and incubated for 10 min at room temperature to stabilize luminescence signal. The samples were read on VICTOR 2 using Luminescence protocol, and analyzed with Analyze5 software to generate IC50 values.

[2] = test system: A431 cells [human epidermoid carcinoma, overexpressing HER1 (EGFR, ErbB1)]; experiment: In vitro tumor cell proliferation assay (Cell Titer-Glo luminescent cell viability), A431 cells; format: cell-based; details: 72 hours of drug exposure, Cell Titer-Glo readout, read-out: IC50, anti-proliferative activity in A431 cells
Description: as §1, §2
The tumor cell proliferation assay used to test the compounds of the present invention involves a readout called Cell Titer-Glow® Luminescent Cell Viability Assay developed by Promega® (Cunningham, B A “A Growing Issue: Cell Proliferation Assays, Modern kits ease quantification of cell growth” The Scientist 2001, 15(13), 26, and Crouch, S P et al., “The use of ATP bioluminescence as a measure of cell proliferation and cytotoxicity” Journal of Immunological Methods 1993, 160, 81-88), that measures inhibition of cell proliferation. Generation of a luminescent signal corresponds to the amount of ATP present, which is directly proportional to the number of metabolically active (proliferating) cells. […]

Q: How did the IC50 ([1]; listed as example 55, trifluoroacetate, read-out: IC50, anti-proliferative activity in BT474 cells) turn out when `O=C(/C=C/c1ccc2c(c1)sc1ncnc(Nc3ccc(OCc4cccc(F)c4)c(Cl)c3)c12)N1CCOCC1` [Example 55, N-{3-chloro-4-[(3-fluorobenzyl)oxy]phenyl}-7-[(1E)-3-morpholin-4-yl-3-oxoprop-1-en-1-yl][1]benzothieno[2,3-d] pyrimidin-4-amine trifluoroacetate] was run?
A: ≤ 5 µM

Q: And the IC50 ([1]; trifluoroacetate, read-out: IC50, anti-proliferative activity in BT474 cells)?
A: ≤ 0.5 µM

Q: `CN1CCN(CCc2ccc3c(c2)sc2ncnc(Nc4ccc(OCc5ccccn5)c(Cl)c4)c23)CC1` [Example 91] was tested. Which IC50 [2] did it give?
A: ≤ 5 µM

Q: `CS(=O)(=O)CCNC(=O)/C=C/c1ccc2c(c1)sc1ncnc(Nc3ccc(OCc4cccc(F)c4)c(Cl)c3)c12` [Example 53, (2E)-3-[4-({3-chloro-4-[(3-fluorobenzyl)oxy]phenyl}amino) [1]benzothieno[2,3-d]pyrimidin-7-yl]-N-[2-(methylsulfonyl)ethyl]acrylamide] was tested. Which IC50 ([1]; listed as example 53, read-out: IC50, anti-proliferative activity in BT474 cells) did it give?
A: ≤ 5 µM

Q: What about the IC50 ([1]; read-out: IC50, anti-proliferative activity in BT474 cells) of the same compound?
A: ≤ 0.5 µM

Q: With `CN1CCN(CCc2ccc3c(c2)sc2ncnc(Nc4ccc(OCc5ccccn5)c(Cl)c4)c23)CC1` [Example 92, N-[3-chloro-4-(pyridin-2-ylmethoxy)phenyl]-7-[2-(4-methylpiperazin-1-yl)ethyl][1]benzothieno[2,3-d] pyrimidin-4-amine trifluoroacetate] as the compound, how does the IC50 ([2]; trifluoroacetate) read?
A: ≤ 50 µM
